Measurements published in PMC12196278, “Targeting Neuronal Nitric Oxide Synthase (nNOS) as a Novel Approach to Enhancing the Anti-Melanoma Activity of Immune Checkpoint Inhibitors” (Pharmaceutics, 2025).

Tested on: A375 cells
Assay: NanoString nCounter PanCancer IO 360 gene expression profiling
Assay type: cell-based, human
Experimental: After treatment, the total RNA samples were collected from A375 cells using an RNeasy Mini Kit (#74104; Qiagen, Hilden, Germany) and stored at −80 °C prior to analysis. The nCounter PanCancer IO 360 Panel and nCounter Pro Analysis System (NanoString, Seattle, WA, USA) were used to quantify gene expression changes in 770 genes implicated in immune-oncological processes. The transcriptomic data were analyzed using ROSALIND online platform (https://www.rosalind.bio/, San Diego, CA, USA).
(b) Comparing IFN-γ treatment to control. (c) Comparing the combination treatment to IFN-γ alone. […] All the treatments were independently repeated three times. […] The analysis was based on the expression changes of genes involved in each specific pathway, with a higher score signifying a greater probability of pathway involvement.

[1] = HH044 54 h vs control, p < 0.05
[2] = HH044 cotreatment with IFN-γ vs IFN-γ alone, p < 0.05
[3] = cotreatment HH044 and IFN-γ (250 units/mL) vs IFN-γ alone

## N=C(Nc1ccc(CCNCc2cccc(NC(=N)c3cccs3)c2)cc1)c1cccs1 [HH044]
HH044 20 μM, 54 h, vs control
  Significance Score, Angiogenesis: 1.7702
  Significance Score, Hedgehog signaling: 2.1423
  Significance Score, Hypoxia: 1.5394
  Significance Score, Lymphoid compartment: 1.6172
  Significance Score, Matrix remodeling and metastasis: 1.94
  Significance Score, NF-kappaB signaling: 1.6256
  Significance Score, P13K-Akt: 1.5824
  Significance Score, TGF-beta signaling: 1.8043
  Significance Score, Wnt signaling: 2.2673
[1]
  genes downregulated: 30 genes
  genes statistically significantly upregulated: 18 genes
[2]
  genes downregulated: 21 genes
  genes upregulated: 16 genes
[3]
  Significance Score, Cytokine and chemokine signaling: 1.426
  Significance Score, Hypoxia: 1.5236
  Significance Score, JAK-STAT signaling: 1.4508
  Significance Score, Matrix remodeling and metastasis: 1.6136
  Significance Score, Metabolic stress: 1.4603
  Significance Score, Notch signaling: 1.7019
  Significance Score, P13K-Akt: 1.6044
